Results as given in PubChem BioAssay AID1508615 (Milbrandt Lab, Department of Genetics, Washington …, 2020).
In all, about 1,600 compounds went through this assay and about 20 (1%) were called active.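 Rule for the calls: active = ratio of uncleaved NAD to its breakdown product ADP-ribose above 4, meaning the enzyme was inhibited; inactive = the rest.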 The list shows a part of the results.

Protein sequences, listed by entry. Tags and fused reporters are not part of them. Lines headed by an entry give the natural chain unless they say otherwise; changes in a name come on top.
UniProt Q6SZW1: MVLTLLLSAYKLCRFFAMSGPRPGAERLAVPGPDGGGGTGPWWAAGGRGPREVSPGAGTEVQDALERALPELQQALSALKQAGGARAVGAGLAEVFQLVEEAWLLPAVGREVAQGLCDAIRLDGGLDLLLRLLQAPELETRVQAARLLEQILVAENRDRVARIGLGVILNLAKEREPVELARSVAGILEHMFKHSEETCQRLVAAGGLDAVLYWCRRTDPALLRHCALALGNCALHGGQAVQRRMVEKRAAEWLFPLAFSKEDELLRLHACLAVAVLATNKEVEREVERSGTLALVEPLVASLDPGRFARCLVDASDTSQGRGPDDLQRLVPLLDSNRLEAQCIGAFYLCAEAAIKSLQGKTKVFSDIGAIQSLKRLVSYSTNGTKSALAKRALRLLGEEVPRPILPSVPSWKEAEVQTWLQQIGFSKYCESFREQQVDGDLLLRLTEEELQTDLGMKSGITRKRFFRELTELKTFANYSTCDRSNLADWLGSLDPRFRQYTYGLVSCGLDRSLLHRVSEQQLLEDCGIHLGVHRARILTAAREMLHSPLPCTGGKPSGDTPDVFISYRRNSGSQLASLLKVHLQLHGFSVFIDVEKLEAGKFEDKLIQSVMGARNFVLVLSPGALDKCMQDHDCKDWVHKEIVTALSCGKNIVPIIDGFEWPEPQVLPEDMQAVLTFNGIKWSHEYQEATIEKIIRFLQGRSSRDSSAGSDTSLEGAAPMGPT

biological target: NAD(+) hydrolase SARM1 (Homo sapiens) (UniProt Q6SZW1); assay: SARM1 TIR NADase inhibitors by HPLC, primary screen, cell lysate, HPLC readout (AID 1508615); details: HEK293T SAM-TIR lysate, at 5 µM, hits give high values;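 note: substrate NAD at 5 µM with 60 min at 37 °C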

| Compound | NAD/ADPR ratio |
| --- | --- |
| O=C(O)/C=C/C(=O)Nc1nccs1 | inactive: 3 |
| Nc1ncnc(N2CCOCC2)n1 | inactive: 3 |
| O=C1COc2c1ccc(O)c2O | inactive: 3 |
| CSc1nc(N)c(C(=O)Nc2ccc([N+](=O)[O-])cc2)s1 | inactive: 3 |
| O=C(Nc1cccc2ccccc12)c1ccccc1 | inactive: 3 |
| CN(C)c1nc(=Nc2cccc(Cl)c2)ss1 | active: 11.3 |
| CN(C)c1ncnc2c1ncn2-c1ccccc1 | inactive: 3 |
| Nc1ncncc1-c1ccc2ccccc2c1 | inactive: 3 |
| CCOC(=O)/C(C#N)=C1\SS/C(=C(/C#N)C(=O)OCC)S1 | active: 7.9 |
| Nc1ccc(NC(=O)Nc2ccc(N)cc2)cc1 | inactive: 3 |
| Nc1ccc(NC(=S)Nc2ccccc2)cc1 | inactive: 3 |
| FC(F)(F)c1nc2nc(Cl)c(Cl)nc2n1CCCN1CCOCC1 | inactive: 3 |
| COc1cc2c(c3c1c(=O)c1cccc(F)c1n3C)C=CC(C)(C)O2 | inactive: 3 |
| COc1ccccc1C1OC2=C(Nc3ccc([N+](=O)[O-])cc3N2)C1=O (stereo not given) | inactive: 3 |
| COc1ccc(/C(C#N)=C/c2cccnc2)cc1 | inactive: 3 |
| O=C(Cn1ccc(=O)[nH]c1=O)Nc1nccs1 | inactive: 3 |
| CC(C)(C)CC(C)(C)N1CNC(=S)NC1 | inactive: 3 |
| O=C(Nc1csnn1)c1csnn1 | inactive: 3 |
| Cn1[nH]cc(/C=N/C(N)=O)c1=O | inactive: 3 |
| Nc1ccc2c(c1)Cc1cc(Cl)c(Cl)cc1-2 | inactive: 3 |
| O=C(O)CCNC1CCCCC1 | inactive: 3 |
| NC(=O)c1ccccc1NC(=O)COc1ccc(Cl)cc1 | inactive: 3 |
| S=c1c2[nH]cnc2ncn1CCSc1ncnc2nc[nH]c12 | inactive: 3 |
| O=C(NC(=S)Nc1cc(Cl)ccc1O)c1cccc(Br)c1 | inactive: 3 |

| Compound | NAD/ADPR ratio |
| --- | --- |
| COC1C(=O)CCC2(CO2)C1(O)C1(C)OC1CC=C(C)C (stereo not given) | inactive: 3 |
| Cc1cn(C2CC(O)C(CO)O2)c(=O)n(Cc2ccccc2)c1=O (stereo not given) | inactive: 3 |
| CC(C)(C)n1nc(C2CC2)cc1NC(=O)Nc1ccc(Cl)cc1 | inactive: 3 |
| Cc1cnc2cc(Cl)ccc2c1SCC(=O)O | inactive: 3 |
| CSc1nc(=S)c2[nH]c(=S)[nH]c2[nH]1 | inactive: 3 |
| CC(C)(C(N)=O)c1ccccc1 | inactive: 3 |
| NC(=NOC(=O)c1ccccc1)C(Cc1ccccc1)C(=O)NOC(=O)c1ccccc1 (stereo not given) | inactive: 3 |
| CSc1nsc(NN)n1 | inactive: 3 |
| Cc1cc2c(cc1C)N(C(=O)CCl)CC(=O)N2 | inactive: 3 |
| CC1(c2ccccc2)O[C@@H]2C[C@H]3[C@@H]4CCC5=CC(=O)C=C[C@]5(C)[C@@]4(F)[C@@H](O)C[C@]3(C)[C@]2(C(=O)CO)O1 (stereo not given in full) | inactive: 3 |
| NCC(=O)c1cccc2ccc[n+]([O-])c12 | inactive: 3 |
| CC(C)CC(NC(=O)OCc1ccccc1)C(=O)NC(Cc1c[nH]c2ccccc12)C(=O)O (stereo not given) | inactive: 3 |
| O=c1n(CC2CO2)c(=O)n(CC2CO2)c(=O)n1CC1CO1 (stereo not given) | inactive: 3 |
| COc1ccccc1/C=C1\Cc2ccccc2C1=O | inactive: 3 |
| Cc1cc2c(cc1C)NC1=C(N2)OC(c2cccc(O)c2)C1=O (stereo not given) | inactive: 3 |
| N[C@H](C(=O)O)[C@H]1ON=C(Cl)[C@@H]1O | inactive: 3 |
| Cc1ccc(NC(=O)NNC(=O)CSC2CCc3ccccc32)c(C)c1 (stereo not given) | inactive: 3 |
| CC1(C)OC2C(CO)OC(n3cnc4c(=S)nc[nH]c43)C2O1 (stereo not given) | inactive: 3 |
| O=C1c2ccccc2C(=O)c2c1cccc2-n1nnc2ccccc21 | inactive: 3 |
| C[C@]12CC[C@H](O)CC1=CC[C@@H]1[C@@H]2CC[C@]2(C)c3[nH]ncc3C[C@@H]12 | inactive: 3 |
| Cc1ccc(NC(=O)Nc2cccnc2)cc1NC(=O)Nc1cccnc1 | inactive: 3 |
| C#C[C@]1(O)CC[C@H]2[C@@H]3CCc4cc(OC)ccc4[C@H]3CC[C@@]21C | inactive: 3 |
| C#CCOCC1CN(c2ccccc2)C(=O)O1 (stereo not given) | inactive: 3 |
| O=C1c2ccccc2C(=O)C1c1ccccn1 | inactive: 3 |

As entered above.
Entry of CC1(C)OC2C(CO)OC(n3cnc4c(=S)nc[nH]c43)C2O1 (stereo not given) under NAD/ADPR ratio: inactive: 3
Entry of COC1C(=O)CCC2(CO2)C1(O)C1(C)OC1CC=C(C)C (stereo not given) under NAD/ADPR ratio: inactive: 3
Entry of CC(C)CC(NC(=O)OCc1ccccc1)C(=O)NC(Cc1c[nH]c2ccccc12)C(=O)O (stereo not given) under NAD/ADPR ratio: inactive: 3
Entry of CC1(c2ccccc2)O[C@@H]2C[C@H]3[C@@H]4CCC5=CC(=O)C=C[C@]5(C)[C@@]4(F)[C@@H](O)C[C@]3(C)[C@]2(C(=O)CO)O1 (stereo not given in full) under NAD/ADPR ratio: inactive: 3
Entry of NCC(=O)c1cccc2ccc[n+]([O-])c12 under NAD/ADPR ratio: inactive: 3
Entry of Cc1ccc(NC(=O)Nc2cccnc2)cc1NC(=O)Nc1cccnc1 under NAD/ADPR ratio: inactive: 3
Entry of N[C@H](C(=O)O)[C@H]1ON=C(Cl)[C@@H]1O under NAD/ADPR ratio: inactive: 3

More records follow:

| Compound | NAD/ADPR ratio |
| --- | --- |
| OC(c1ccccc1)(c1ccccc1)c1nccn1-c1ccccc1 | inactive: 3 |
| C=CCSc1n[nH]c(-c2cccs2)n1 | inactive: 3 |
| COc1ccc(NC(=O)c2cc3ccc4c5ccccc5[nH]c4c3cc2O)cc1 | inactive: 3 |
| c1ccc2c(c1)-c1cccc3cncc-2c13 | inactive: 3.3 |
| O=C(c1cccnc1)N1CCN(c2ccccc2Cl)CC1 | inactive: 3 |
| S=C1N(c2ccccc2)CN(C2CCCCC2)CN1c1ccccc1 | inactive: 3 |
| N#CC1=CC2CN(Cc3ccccc3)C1C1C(=O)N(c3ccccc3)C(=O)C21 (stereo not given) | inactive: 3 |
| CC(C)(C)N1CCC1CN (stereo not given) | inactive: 3 |
| Cc1nc2ccccc2nc1N1CCCC1 | inactive: 3 |
| COc1cc(C(=O)OC(C)CN2CCOCC2)cc(OC)c1OC (stereo not given) | inactive: 3 |
| O=S(=O)(O)c1ccc(N=Nc2ccccc2)cc1 | inactive: 3 |
| CN=C1C=C/C(=N/N=c2\ccn(O)cc2C)C=C1C | inactive: 3 |
| CN(C)S(=O)(=O)c1ccccc1N=C=S | inactive: 3 |
| NCCN1CCNCC1 | inactive: 3 |
| C=CCOC(=O)/C=C/C(=O)NC(N)=O | inactive: 3 |
| O=c1c(-c2ccc(O)cc2)coc2cc(O)cc(O)c12 | inactive: 3 |
| Cc1cc(NC(=O)c2ccccc2)nc(C)n1 | inactive: 3 |
| c1ccc(-c2cc3ccccc3[nH]2)cc1 | inactive: 3 |
| CC1=CN2C(c3cccc([N+](=O)[O-])c3)=NON(c3ccc(C)cn3)C2C=C1 (stereo not given) | inactive: 3 |
| Cc1ccc(S(=O)(=O)NC(=O)Nc2nccs2)cc1 | inactive: 3 |
| Nc1ccc(N=Nc2ccccc2Cl)c(N)n1 | inactive: 3 |
| COc1ccc(C(=O)O)nc1C | inactive: 3 |
| Brc1ccc(-c2csc(Nc3nc(-c4ccc(Br)cc4)cs3)n2)cc1 | inactive: 3 |
| C=CCNC(=S)Nc1c(N)n(C)c(=O)n(C)c1=O | inactive: 3 |

| Compound | NAD/ADPR ratio |
| --- | --- |
| Oc1ccccc1Nc1ccccn1 | inactive: 3 |
| O=C(Nc1ccc2ccccc2c1)c1cccc(F)c1 | inactive: 3 |
| O=C(Nc1ccc(O)c(C(=O)O)c1)Oc1ccccc1 | inactive: 3 |
| CCNC(=O)Oc1ccc[nH]c1=O | inactive: 3 |
| COc1cccc(-c2nnc(N)o2)c1 | inactive: 3 |
| Cc1nc2ccccc2c(N)c1-c1cc(C)c2c(C)nc3ccccc3c2n1 | inactive: 3 |
| O=[N+]([O-])c1cnc(Sc2ccncn2)s1 | inactive: 3 |
| O=C1OC(Cc2ccccc2)C(c2ccccc2)C1=O (stereo not given) | inactive: 3 |
| CCCOc1nc2c(c(=O)n(C)c(=O)n2C)n1C | inactive: 3 |
| OCc1ncccc1O | inactive: 3 |
| CCOC(=O)c1c(C)c(C(=O)OCC)n(C)c1C | inactive: 3 |
| [O-]/[N+](=C\c1ccccc1)CC1(O)CCCCC1 | inactive: 3 |
| CCOC(CNCc1cc(C)c2[nH]c3ccccc3c2c1C)OCC | inactive: 3 |
| C#CC1(O)CCC2C3CCC4=Cc5oncc5CC4(C)C3CCC21C (stereo not given) | inactive: 3 |
| Nc1nnc(-c2cccnc2)s1 | inactive: 3 |
| Cc1ccc(C(N)=Nc2ccccc2)cc1 | inactive: 3 |
| O=C(Nc1ccc(Br)c2ccccc12)c1ccc2ccccc2c1O | inactive: 3 |
| COc1cccc(/C=C2\CCc3ccccc3C2=O)c1 | inactive: 3 |
| NS(=O)(=O)c1ccc(N=Nc2ccc(=O)[nH]c2O)cc1 | inactive: 3 |
| CC(=O)OCCN1c2ccccc2Sc2cnccc21 | inactive: 3 |
| Cc1ccc(NC(=O)Nc2nc3ccccc3s2)cc1NC(=O)Nc1nc2ccccc2s1 | inactive: 3 |
| O=C1OCC/C1=C\OCCCO/C=C1\CCOC1=O | inactive: 3 |
| COc1cc(-c2ccc(NC(=O)NC3CC3)c(OC)c2)ccc1NC(=O)NC1CC1 | inactive: 3 |
| Nc1n[nH]c(CO)n1 | inactive: 3 |

| Compound | NAD/ADPR ratio |
| --- | --- |
| Cc1cc(C)n2c(C)nnc2c1 | inactive: 3 |
| COc1c(/C=N/NC(N)=O)c(OC)c(OC)c2c1CCO2 | inactive: 3 |
| CC(=O)NC1=C/C(=C\[N+](=O)[O-])C=C1O | inactive: 3 |
| CCOC(=O)/C(C#N)=C/c1c[nH]c2ccccc12 | inactive: 3 |
| Nc1ccc(C(=O)C(=O)c2ccc(N)cc2)cc1 | inactive: 3 |
| CC1=C(C(N)=O)S(=O)(=O)c2ccccc21 | inactive: 3 |
| O=C1/C(=C/c2ccc([N+](=O)[O-])cc2)CCc2ccccc21 | inactive: 3 |
| CC(C)(C)n1nc(C2CC2)cc1NC(=O)Nc1ccccc1 | inactive: 3 |
| Nc1ccc(-c2nc3nc(N)nc(N)c3nc2-c2ccc(N)cc2)cc1 | inactive: 3 |
| CC(C)(NC(=O)c1cc(Cl)c2ccccc2c1O)C(=O)O | inactive: 3 |
| COc1ccc(N=Cc2c(O)ccc3c2oc2cc(Cl)c(O)c(Cl)c23)cc1 | inactive: 3 |
| CC(=O)NS(=O)(=O)c1ccc2sc(C)nc2c1 | inactive: 3 |
| O=C(O)c1cc2ccccc2cc1Nc1ccccc1 | inactive: 3 |
| CC1(C)N=C(N)N=C(N)N1c1cccc(CN)c1 | inactive: 3 |
| CCCCCC(=O)N1CCCC1 | inactive: 3 |
| Cc1ccc(Nc2ccc(N)cc2S(=O)(=O)O)cc1 | inactive: 3 |
| CC(=O)Nc1ccc(OC(=O)Oc2ccc(NC(C)=O)cc2)cc1 | inactive: 3 |
| N=C1CCC(=N)c2c1c(O)c1ccccc1c2O | inactive: 3 |
| CCOC(=O)Nc1ccc2nc(Sc3ccc(Cl)cc3)sc2c1 | inactive: 3 |
| COc1cc(C2NC(=O)C(C#N)=C(Nc3cccc(C)c3)S2)ccc1O (stereo not given) | inactive: 3 |
| COc1ccc2c3c1OC1CC(O)C=CC31CCN(C)C2 (stereo not given) | inactive: 3 |
| Cc1cc(NC(=O)NC(=O)c2ccccc2NC(=O)C(C)N)ccc1Oc1ncc(Br)cn1 (stereo not given) | inactive: 3 |
| CCCCn1cnc2c(=S)nc(N)[nH]c21 | inactive: 3 |
| O=c1[nH]cc(Cl)cc1Cl | inactive: 3 |
